PubChem BioAssay AID1671195, Yale University – 2021
Screen: 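Regulators of LDL receptor activity judged by labelled LDL uptake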 (primary screen). System: human Huh7 hepatoma cells. Reagent: siRNA pool against human genes, 18 nM. Duration: about 2 to 2.5 days of knockdown, then 8 h LDL uptake. Treatment: DiI-labelled LDL at 30 µg/ml for 8 h, in lipoprotein-deficient serum medium. Measured: 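Fluorescent LDL signal imaged in cells, scaled to the plate median, robust z-score for each replicate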. Reading the numbers: robust z-score: higher = more LDL uptake after knockdown. Hit rule: 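Active when two or more replicates show a robust z-score above 2 or below -2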.
The whole screen tested about 22,000 reagents; below is a part drawn at random. Of all reagents, about 1,510 (6.9%) were called active. 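Active includes knockdowns raising or lowering LDL uptake; positive z-scores mean more uptake, negative mean less.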 The numbers tell different reagents against one gene apart.

| gene knocked down | pool no. | robust z-score, replicate 1 | robust z-score, replicate 2 | robust z-score, replicate 3 | outcome |
| --- | --- | --- | --- | --- | --- |
| OVAAL | 1 | 1.54 | 0.674 | 1.12 | inactive |
| DDX19A | 1 | 0.541 | 1.07 | 1.28 | inactive |
| DDX19A | 2 | -1.59 | -1.08 | -0.972 | inactive |
| ACP6 | 1 | 0.168 | 0.386 | 0.461 | inactive |
| NKX2-5 | 1 | 1.03 | 0.378 | 1.83 | inactive |
| SCAND2P | 1 | -0.978 | -1.17 | -1.35 | inactive |
| HNF1A | 1 | 2.01 | 1.07 | 0.604 | inactive |
| TNFSF13B | 1 | -0.283 | -1.11 | 0.225 | inactive |
| LOC256283 (retired record) | 1 | -0.501 | -0.24 | -0.301 | inactive |
| ZNF143 | 1 | -0.00628 | -0.194 | 0.393 | inactive |
| SPATA24 | 1 | 0.991 | 1.05 | 1.65 | inactive |
| GSAP | 1 | 1.31 | 0.973 | 1.09 | inactive |
| WDCP | 1 | 0.54 | -0.494 | 0.137 | inactive |
| OR13A1 | 1 | -0.532 | -0.572 | -0.67 | inactive |
| E2F6P4 | 1 | 3.07 | 2.26 | 2 | active |
| FOLH1B | 1 | 0.445 | -0.0611 | 0.706 | inactive |
| ASPA | 1 | 0.701 | 1.56 | -0.212 | inactive |
| NDUFV3 | 1 | 0.0216 | -0.576 | -0.757 | inactive |
| LINGO2 | 1 | 0.0233 | -0.108 | -0.449 | inactive |
| CPED1 | 1 | 0.346 | 0.121 | 0.538 | inactive |
| CELSR2 | 1 | 0.387 | 0.314 | -0.013 | inactive |
| PDK2 | 1 | -0.244 | -0.506 | -0.081 | inactive |
| LOC387705 (retired record) | 1 | 0.433 | -0.252 | -0.133 | inactive |
| FBXL14 | 1 | -0.764 | -1.39 | -0.444 | inactive |
| CHCHD2P10 | 1 | -1.12 | -1.03 | -0.733 | inactive |
| ABCA10 | 1 | -0.294 | 0.399 | 0.241 | inactive |
| PIH1D1 | 1 | -2.04 | -0.0878 | -1.72 | inactive |
| TWIST2 | 1 | -0.447 | -0.302 | -1.82 | inactive |
| CLDN18 | 1 | 1.56 | 2.08 | 1.73 | inactive |
| NFIB | 1 | -1.22 | -1.1 | -0.0463 | inactive |

The list goes on (4 carried over from the part before).
| gene knocked down | pool no. | robust z-score, replicate 1 | robust z-score, replicate 2 | robust z-score, replicate 3 | outcome |
| --- | --- | --- | --- | --- | --- |
| PIH1D1 | 1 | -2.04 | -0.0878 | -1.72 | inactive |
| TWIST2 | 1 | -0.447 | -0.302 | -1.82 | inactive |
| CLDN18 | 1 | 1.56 | 2.08 | 1.73 | inactive |
| NFIB | 1 | -1.22 | -1.1 | -0.0463 | inactive |
| IFIT5 | 1 | 0.0597 | -0.0101 | -0.126 | inactive |
| NCK2 | 1 | 1.42 | 1.27 | 1.19 | inactive |
| EYA2 | 1 | 0.284 | 0.0732 | -0.456 | inactive |
| LOC442428 (retired record) | 1 | 0.231 | -0.0734 | 0.0939 | inactive |
| NSRP1 | 1 | -1.21 | -1.24 | -1.49 | inactive |
| CABP1 | 1 | 1.68 | 1.72 | 2 | inactive |
| LOC441062 (retired record) | 1 | 0.927 | 1.83 | 1.18 | inactive |
| ALCAM | 1 | 1.99 | 0.444 | 1.14 | inactive |
| PYCR3 | 1 | 4.12 | 3.02 | 5.41 | active |
| DDX20 | 1 | 0.465 | 1.31 | 1.36 | inactive |
| HLA-DQB1 | 1 | -1.69 | -0.797 | -1.4 | inactive |
| SHANK3 | 1 | 0.156 | 0.433 | 0.509 | inactive |
| MAP3K11 | 1 | -0.478 | 0.437 | -0.00241 | inactive |
| RBL1 | 1 | 0.282 | 0.975 | -0.326 | inactive |
| DCLK1 | 1 | 1.34 | -0.229 | 0.298 | inactive |
| OR10V1 | 1 | -0.288 | -0.16 | 0.0792 | inactive |
